Library screening results

The values are deposited in ChEMBL (CHEMBL3988442, “University of Dundee, Small-Polar-MMV Screening Library” (2021)).

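Viability assay of Plasmodium falciparum sporozoites; the read-out is not stated. The concentration is filed as 10 mM, unlikely as a test dose, so the dose is not known. Higher reads as lower viability (inferred: compounds with an IC50 in retests scored well above the rest). Strong results were mostly tested again. Of about 34,000 compounds tested this way, about 280 (0.84%) reached 50% or more in at least one test.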

Results are given as percent effect. The controls that fix the scale are not given in the record; negative values are as filed. The compounds are a random part of those screened. Two or more numbers in one place are separate tests of the same structure; such repeats can differ widely.

| structure | percent effect |
|---|---|
| `Cn1cccc1C(=O)N1CCc2ncnc(C3CC3)c2CC1` | 3.114% |
| `O=C(NCc1nncn1-c1ccccc1)C1CC1` | 0.9659% |
| `[H][C@@]12CCN(C(=O)c3ccco3)C[C@]1([H])[C@@H](CNC(=O)C1CC1)OC2` | 11.07% |
| `COCCN1CCC(NCc2c(F)cccc2F)C1` (stereo not given) | -14.01% |
| `COc1cc(NC(=O)c2cscn2)ncn1` | 71.58% and -49.12% and -56.55% |
| `CC(Cc1ccco1)NC(=O)Nc1cnn(CC(N)=O)c1` (stereo not given) | -16.47% |
| `CCC(O)Cn1cc(C2=CCN(Cc3cc(O)nc(C)n3)CC2)cn1` (stereo not given) | -29.51% and -29.89% |
| `O=C(c1ccco1)N1CCOCC2(C1)CN(c1ccoc1)C(=O)CO2` (stereo not given) | -20.33% and 28.84% and -16.34% |
| `CC(=O)NCCNCC1(O)CCCN(CCC2CCCCC2)C1=O` (stereo not given) | -1.667% |
| `Cc1cccn2c(=O)cc(OC(=O)c3ccccc3)nc12` | -3.269% |
| `O=C(O)C(F)(F)F.[H][C@@]12COC[C@]1(C(=O)NCCc1cccs1)CN(c1ncccn1)C2` | -0.2555% |
| `CC(NC(=O)NCc1ccccc1Cl)c1ccccn1` (stereo not given) | -2.363% |
| `O=C1Nc2ccccc2NC12CCN(Cc1nnc(C3CC3)o1)CC2` | -4.263% |
| `Cl.c1cc(CNCc2ccc(Cn3cncn3)cc2)c2c(c1)OCCO2` | 6.868% |
| `O=C(O)C(F)(F)F.[H][C@@]12CCCO[C@]1([H])[C@H](N(C)C)CN2C(=O)Cc1ccccc1` | 8.932% |
| `CCCc1nn(Cc2ccc(Br)s2)c(=O)o1` | 3.76% |
| `COCC(=O)N1CCC(c2nc3ccc(N4CCCC4)cn3n2)CC1.O=C(O)C(F)(F)F` | -16% |
| `CC(=O)NCC1CCN(c2cc(C)nc(-c3ccncc3)n2)CC1` | -126.9% |
| `COc1ccc(-c2nnc(CN3CCCC3Cn3cncn3)o2)cc1` (stereo not given) | 13.67% |
| `Cc1cc(-c2nnn(CCNS(C)(=O)=O)n2)ccc1F` | -13% |
| `COc1ccc(C(=O)N(C)Cc2cc(C)on2)c(F)c1` | -2.236% |
| `Cc1ccc(C(=O)N2CC[C@@]3(C[C@@H](NS(C)(=O)=O)CCO3)C2)s1` | -1.804% |
| `Cc1ccc(-c2nc(CNCC3CN(C)CCO3)co2)c(C)c1` (stereo not given) | 2.137% |
| `[H][C@@]12CNC[C@]1([H])CN(C(=O)C1CCOCC1)C2` | 6.567% |
| `COCCCNC(=O)c1ccccc1-n1cc(CN(C)C)cn1` | 1.904% |
| `O=C1NC2(CCN(Cc3cccnc3)CC2)CC1c1ccncc1` (stereo not given) | -8.837% |
| `O=C(Cc1csc(-c2nnc[nH]2)n1)N1CCCC1Cn1cccn1` (stereo not given) | -19.85% |
| `CNc1nc(CNC(=O)Nc2cccc(CC(F)(F)F)c2)cs1` | -8.49% |
| `CCN1C(=O)CCC12CCCN(S(=O)(=O)c1cccc(C)c1)CC2` (stereo not given) | -4.106% |
| `CC(CC(=O)NS(=O)(=O)c1ccc2c(c1)OCCO2)c1ccc(F)cc1` (stereo not given) | -1.597% |
| `Cc1cnn(CC2CCCN2Cc2nc3ccccc3n2C)c1` (stereo not given) | -8.341% and -10.82% and -15.38% |
| `O=C1COC2(COCCN(c3cnccn3)C2)CN1c1cccc(F)c1` (stereo not given) | -5.366% |
| `COc1cc(CNC(=O)CNc2cc(Cl)ccc2OC)ccn1` | 0.64% |
| `CNC(=O)CN1CCC(NC(=O)C(C)Oc2ccccc2C#N)CC1` (stereo not given) | 10.57% |
| `CN(C)CCN(Cc1cccc(C(F)(F)F)c1)C(=O)c1cc[nH]n1` | -9.854% |
| `CCCC(=O)Nc1ccc2c(c1)C1(CCOCC1)CN2CCOC.O=C(O)C(F)(F)F` | 11.91% |
| `O=C(O)C(F)(F)F.c1csc(CN2CCn3c(Cn4cncn4)cnc3C2)n1` | -3.576% |
| `CCN1Cc2cc(F)ccc2N(CC(O)C(F)(F)F)CCC1=O` (stereo not given) | -41.42% |
| `CCOc1ccc(C#N)cc1NCC(=O)Nc1cc(F)ccc1F` | -2.056% |
| `Cc1nc(C)c(Cn2ccnc2-c2cc(CN(C)C)cs2)s1` | -12.5% |
| `CCn1c(CN2CCCN(C(=O)OC)CC2)nc2c(F)cccc21` | -2.803% |
| `CCNC(=O)[C@@H]1CN(Cc2ccccc2)C[C@H]1C(=O)c1ccc(F)cc1` | 10.33% |
| `CCCS(=O)(=O)NC(C)C(=O)NCc1ccnc(N2CCCC2)c1` (stereo not given) | 8.564% |
| `Cc1cccc(CN2CCC3(CC2)COC(COCC2CC2)C3)n1` (stereo not given) | 3.713% |
| `O=C(Cc1ccc(Br)s1)NCC(=O)Nc1cn[nH]c1` | -9.769% |
| `COc1ccc(C2CN(c3cc(C)ncn3)CCN2C(C)=O)cc1` (stereo not given) | 14.24% |
| `CN(Cc1ccc2c(c1)OCO2)Cc1nc2c(cnn2C)c(=O)[nH]1` | -4.482% |
| `COc1ccc(-n2nnc(C(=O)NC(C)C)c2C2CC2)cc1` | -13.44% |
| `O=C(O)C(F)(F)F.[H][C@@]12COC[C@]1(COCC(=O)N(C)C)CN(CC1CCC1)C2` | -2.999% |
| `CCCc1n[nH]c(C2CN(C(=O)c3cc(F)ccc3OC)CCO2)n1` (stereo not given) | -5.297% |

Some entries from above, unchanged:

* CCOc1ccc(C#N)cc1NCC(=O)Nc1cc(F)ccc1F : -2.056%
* O=C(Cc1csc(-c2nnc[nH]2)n1)N1CCCC1Cn1cccn1 (stereo not given) : -19.85%
* Cc1cc(-c2nnn(CCNS(C)(=O)=O)n2)ccc1F : -13%